Results are given in words; binding and its absence hold for the method and conditions named. Some entries that bind do so weakly or less than the wild type.
Legend:
ICAM-3 [1] = molecular target: T1, ICAM-3 (UniProt P32942); assay: flow cytometry-based fluorescent bead adhesion assay
T1 sequence (looked up): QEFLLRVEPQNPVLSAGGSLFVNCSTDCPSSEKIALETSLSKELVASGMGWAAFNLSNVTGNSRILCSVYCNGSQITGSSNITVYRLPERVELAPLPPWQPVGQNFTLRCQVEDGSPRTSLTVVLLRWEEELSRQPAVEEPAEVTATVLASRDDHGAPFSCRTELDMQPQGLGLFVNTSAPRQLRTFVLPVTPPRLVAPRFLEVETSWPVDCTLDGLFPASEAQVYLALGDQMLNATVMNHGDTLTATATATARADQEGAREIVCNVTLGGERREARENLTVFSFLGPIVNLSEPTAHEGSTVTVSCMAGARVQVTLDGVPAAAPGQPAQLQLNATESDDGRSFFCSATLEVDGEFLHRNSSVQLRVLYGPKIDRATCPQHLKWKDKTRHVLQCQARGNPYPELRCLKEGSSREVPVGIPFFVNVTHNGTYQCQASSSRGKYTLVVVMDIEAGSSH

The chains behind the UniProt entries cited, without tags or fusion partners. Where a name states a change or a piece, a line headed by the entry shows the natural chain unless it says otherwise.
UniProt Q9H2X3: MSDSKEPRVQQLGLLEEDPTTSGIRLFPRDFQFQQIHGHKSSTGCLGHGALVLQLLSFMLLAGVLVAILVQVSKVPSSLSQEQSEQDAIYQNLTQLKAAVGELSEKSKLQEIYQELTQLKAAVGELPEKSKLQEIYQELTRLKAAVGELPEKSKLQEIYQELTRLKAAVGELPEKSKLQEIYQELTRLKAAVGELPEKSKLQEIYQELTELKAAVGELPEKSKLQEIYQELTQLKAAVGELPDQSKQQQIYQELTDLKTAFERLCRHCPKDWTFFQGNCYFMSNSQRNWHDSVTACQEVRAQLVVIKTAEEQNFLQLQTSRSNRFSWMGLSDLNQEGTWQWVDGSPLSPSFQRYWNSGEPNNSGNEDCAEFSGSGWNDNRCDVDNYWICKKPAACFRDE
UniProt Q9NNX6: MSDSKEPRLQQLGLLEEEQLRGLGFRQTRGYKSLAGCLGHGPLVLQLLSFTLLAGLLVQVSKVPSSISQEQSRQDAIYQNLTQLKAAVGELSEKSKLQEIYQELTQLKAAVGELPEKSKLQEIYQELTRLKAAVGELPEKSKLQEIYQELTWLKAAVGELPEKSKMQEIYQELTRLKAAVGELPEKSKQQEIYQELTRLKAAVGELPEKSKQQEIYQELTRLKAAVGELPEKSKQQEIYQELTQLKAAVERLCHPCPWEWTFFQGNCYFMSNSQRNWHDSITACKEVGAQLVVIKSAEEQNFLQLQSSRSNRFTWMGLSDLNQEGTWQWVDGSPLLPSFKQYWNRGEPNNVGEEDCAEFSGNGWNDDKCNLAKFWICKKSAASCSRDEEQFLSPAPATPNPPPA

ICAM-3 [2] = molecular target: T1, ICAM-3; assay: fluorescent bead adhesion assay on K562-L-SIGN cells
ICAM-3 [3] = molecular target: T1, ICAM-3; assay: fluorescent bead adhesion assay on K562-DC-SIGN cells

Substance | binding (ICAM-3 [1]) | binding (ICAM-3 [2]) | binding (ICAM-3 [3])
L-SIGN (liver/lymph node-specific ICAM-3 grabbing nonintegrin) (from UniProt Q9H2X3 1-399) (receptor) | binds | binds | 
DC-SIGN (from UniProt Q9NNX6 1-404) (receptor) |  |  | binds

Source: US20070134693A1, “Method for modulating the binding activity of a novel ICAM-3 binding receptor on sinusoidal endothelial cells in liver and lymph nodes” (priority 2000, published 2007)
